Consider 54 sequences from PMC7819943, “Rice protein-binding microarrays: a tool to detect cis-acting elements near promoter regions in rice”.

The list shows a part of the results.

This experiment addresses T1, OsSMF1 (Oryza sativa, UniProt Q6ZLB0 1-436).
T1 sequence: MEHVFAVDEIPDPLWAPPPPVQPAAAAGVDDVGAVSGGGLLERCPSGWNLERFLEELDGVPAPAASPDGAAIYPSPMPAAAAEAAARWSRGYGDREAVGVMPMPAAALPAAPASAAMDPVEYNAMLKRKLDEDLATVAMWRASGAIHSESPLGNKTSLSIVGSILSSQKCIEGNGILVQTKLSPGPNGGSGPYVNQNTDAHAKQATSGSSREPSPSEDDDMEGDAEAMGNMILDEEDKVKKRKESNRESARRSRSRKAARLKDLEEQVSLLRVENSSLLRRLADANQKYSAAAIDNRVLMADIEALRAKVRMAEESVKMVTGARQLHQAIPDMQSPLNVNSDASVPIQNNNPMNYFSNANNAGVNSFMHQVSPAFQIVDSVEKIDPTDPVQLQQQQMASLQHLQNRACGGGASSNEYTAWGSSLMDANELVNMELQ
In words: protein-binding microarray (RPBM); PBS, 2% BSA, 51.3 ng/ul salmon testes DNA, 50 uM zinc acetate, 200 nM TF, 25 C, 1 h; high values mean tight binding. Conditions: protein: recombinant; tags: N-terminal polyhistidine and DsRed monomer fusion (pET32a); chain copies: 2; label: CyDye5-dUTP incorporated in the synthesized complementary strand; 3' TTTTT single-stranded linker to array surface; dsDNA, one strand shown. The procedure, abridged: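 For the binding signal, per-feature fluorescence intensity was read in arbitrary units on an Axon 4000B scanner. Before scanning, a 2% BSA-blocked custom Agilent array made double-stranded with Cy5-dUTP was washed after 1 h at 25 °C with 200 nM protein and 50 µM zinc acetate. The proteins were Ni–NTA-purified transcription factors with N-terminal polyhistidine and DsRed fusions, expressed in E. coli BL21-CodonPlus.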
For the sequence “GGCCTCCACGCTGCGTTGCCGCAATTATGCGTCACCGCGTCGGAGTCACCTAGTGCAG”, the binding signal is 6770 fluorescence intensity (a.u.). For “TCCACCCTCACTGACATGTGGGCCACGCCCCTCGCGCGGGCGGAGTCACCTAGTGCAG”, the binding signal is 3820 fluorescence intensity (a.u.).

Turning to “TGTACCGCGTGCTACAGCTGGCGATAATTCTATCGTCGACCGGAGTCACCTAGTGCAG”, the binding signal was 4020 fluorescence intensity (a.u.). For “GCCTCGATCGCGGCGGTGGCGGTGGGGAGGGGAGCGCACCCGGAGTCACCTAGTGCAG”, the binding signal is 5050 fluorescence intensity (a.u.).

As for “TTTTATGTGATGTCATCCATACACTAGATCTAGACTGATTCGGAGTCACCTAGTGCAG”, the binding signal is 7700 fluorescence intensity (a.u.). The result for “ATGTCGCTGTGGCTCATCCGGCCCAAGCCCATTTCCCCACCGGAGTCACCTAGTGCAG” reads 29500 fluorescence intensity (a.u.); that for “ACTGCGGTGCGCCCGTTCGCACACCATCATGCTCTGTTGCCGGAGTCACCTAGTGCAG”, 3530 fluorescence intensity (a.u.).

For the sequence “GGCAGCGGCCACAGAGTGACACGGCGGCGGCCAGAGCAGCCGGAGTCACCTAGTGCAG”, the binding signal is 5410 fluorescence intensity (a.u.). On to “CGGCACTCTCTGCCAGCTGGGTTCCACCGTTTCGTCGAGGCGGAGTCACCTAGTGCAG”, for which the binding signal was 4300 fluorescence intensity (a.u.).

Consider “CATCATCATCGTGGTGGTGACGTGTGGTTCGGCACTCCGGCGGAGTCACCTAGTGCAG”, for which the binding signal was 8410 fluorescence intensity (a.u.).

For “GAAAGGCACTTACATCACATGTGTGGACATGTGTCTCTTCCGGAGTCACCTAGTGCAG”, the binding signal is 3200 fluorescence intensity (a.u.). The result for “GCCGAGAAGGCATCAACGGCACTGGCGAGGCCCTCTCAGCCGGAGTCACCTAGTGCAG” reads 39600 fluorescence intensity (a.u.); that for “CCGCCGGCCGCTTCCACGCCTCCGTCGACCTCGCCAAGTCCGGAGTCACCTAGTGCAG”, 3470 fluorescence intensity (a.u.). On to “GCCTGAATCCTCCGTTGAAGAGTCGGACAACGGCCGCCGCCGGAGTCACCTAGTGCAG”, for which the binding signal is 8890 fluorescence intensity (a.u.). Regarding “GATGACGACGGCGATGACGGCGGGGCGGTTTGGAGCGGGGCGGAGTCACCTAGTGCAG”, the binding signal is 4720 fluorescence intensity (a.u.). The result for “GGAGGATTTCCGGTCCAGACCACCACGTCAGCGGCGTGCCCGGAGTCACCTAGTGCAG” reads 26000 fluorescence intensity (a.u.). As for “GGTTCAACGCTTGCCATGGAAGTAACGTACAGGGAGACTGCGGAGTCACCTAGTGCAG”, the binding signal is 3200 fluorescence intensity (a.u.). The result for “TCTTCTTCTTCTTCTTCTTCATAGCTTGCCTTTCTCCCTTCGGAGTCACCTAGTGCAG” reads 4400 fluorescence intensity (a.u.); that for “ACTACCAAACCGTGGAGTAGTGTGTGTGTGCCGTACTGTTCGGAGTCACCTAGTGCAG”, 21600 fluorescence intensity (a.u.). On to “CGGCCTCCACGTTCCGGGGCCCACCTGTCAGTGAGCGCCACGGAGTCACCTAGTGCAG”, for which the binding signal was 28900 fluorescence intensity (a.u.).

On to “CTTAAAATAACATCTCAGAGGTAGGTACTGTTCGTGAGGGCGGAGTCACCTAGTGCAG”, for which the binding signal is 29200 fluorescence intensity (a.u.).

Regarding “TAATGTATTTATTTATTTTATTATGACTTGATTTATCGTCCGGAGTCACCTAGTGCAG”, the binding signal is 3780 fluorescence intensity (a.u.). The result for “ACGGGCCGGACAGCTGGTACGTCACGTACACGTCTAGGGCCGGAGTCACCTAGTGCAG” reads 4390 fluorescence intensity (a.u.); that for “AACAACTTTAGCGGCAAAATAGCGGTGGAAGAAAATCGGACGGAGTCACCTAGTGCAG”, 33800 fluorescence intensity (a.u.); that for “GGAGGTAGTATGATGCATCCCTCAACTTTCAAAACCATTGCGGAGTCACCTAGTGCAG”, 3710 fluorescence intensity (a.u.).

Turning to “CGCCGTCCTGCTGCTTCCGCCGCATCACATCCCGGTGAGCCGGAGTCACCTAGTGCAG”, the binding signal is 3330 fluorescence intensity (a.u.).

As for “ACATTTATTGCATCATTACATTCTGAAGTAATTTCAACATCGGAGTCACCTAGTGCAG”, the binding signal was 3470 fluorescence intensity (a.u.).

With “TTGGTAGTTGGGTGGTGATGTAGCAGCAGCAGGGGCCGGCCGGAGTCACCTAGTGCAG”, the binding signal was 4600 fluorescence intensity (a.u.). The result for “CGTTGGCCACGTTGATGGTGACCCGTACGCTCTCCCCGGCCGGAGTCACCTAGTGCAG” reads 5210 fluorescence intensity (a.u.). Under “CTTCCCCGAGTCCATCGCCGGAGTAGTAGTGCCGCAGAAGCGGAGTCACCTAGTGCAG” stands 28800 fluorescence intensity (a.u.); under “CTCATTTGAACACATGTACACTACTAATCCTCGTTCTGGACGGAGTCACCTAGTGCAG”, 39200 fluorescence intensity (a.u.); under “CAAGCATTCAAAAGCTAGTAGTGACGTGCTTACTCCATCCCGGAGTCACCTAGTGCAG”, 8130 fluorescence intensity (a.u.). Turning to “AGGATGAGCGGTTCCTCCGTGACACGGCAGTGGGTTTCATCGGAGTCACCTAGTGCAG”, the binding signal is 4010 fluorescence intensity (a.u.). The result for “CGTCATCTCGTGTACCGCAGGCGCGTGGCGTGCCAAGTTCCGGAGTCACCTAGTGCAG” reads 3160 fluorescence intensity (a.u.); that for “CCTTCGCCGTTGATCGAGTCGACGTGGCTTTCCTGACGCCCGGAGTCACCTAGTGCAG”, 15500 fluorescence intensity (a.u.); that for “AATCGCGGGGTCGTTGTCACTGTCACGCACTAATCCGCTGCGGAGTCACCTAGTGCAG”, 5300 fluorescence intensity (a.u.). Under “TGACAATTACTCCGTGTAATCTCCCTCTAAAATTTATTTTCGGAGTCACCTAGTGCAG” stands 23800 fluorescence intensity (a.u.); under “TCACCTCTATCTCAATGACACGTGGCTCCACATGTGTCTACGGAGTCACCTAGTGCAG”, 18400 fluorescence intensity (a.u.). As for “AAGCTTTGTCACTGGCTCAACATGACGATATATCGGTTAACGGAGTCACCTAGTGCAG”, the binding signal is 3450 fluorescence intensity (a.u.). The result for “TCCTCACGCTTTCTCGGTTCCATTTGGCTTTATTAATAATCGGAGTCACCTAGTGCAG” reads 3260 fluorescence intensity (a.u.); that for “ATCAATAAGATGGCATGCATGCAGTTGCAGCTGACGCGCACGGAGTCACCTAGTGCAG”, 3270 fluorescence intensity (a.u.); that for “CCATTGCAAAATTCCTACGCTCTACGCAAATCTCGTGTCACGGAGTCACCTAGTGCAG”, 3850 fluorescence intensity (a.u.). For “CCACCGACGCCGACGTCGGCGGTCTCCGTCTTTCGTGCCACGGAGTCACCTAGTGCAG”, the binding signal was 3940 fluorescence intensity (a.u.). Take “GGACATGCCAAACCACGACAACAACAATGGCACCACGTCGCGGAGTCACCTAGTGCAG”: the binding signal is 4080 fluorescence intensity (a.u.). The result for “TGGGTTAATTGGGTTGGGTGGGCCGCTGCCTATGTGGCGGCGGAGTCACCTAGTGCAG” reads 6640 fluorescence intensity (a.u.); that for “CCTACTCCACTCCCCTAGCTTCTGTCGCATGAGGTGGAGCCGGAGTCACCTAGTGCAG”, 3370 fluorescence intensity (a.u.); that for “AAAGCCCAATGGGCCAGATCAACGCGGCCCATTTACACTCCGGAGTCACCTAGTGCAG”, 3260 fluorescence intensity (a.u.). The result for “ACATGACATGTATAGTGCTGATGACCATGTCAAGTTATCACGGAGTCACCTAGTGCAG” reads 4530 fluorescence intensity (a.u.). For the sequence “CGGCGGTCCGTCGCTCATGTCGTCATTGGCCGGCGAGTCACGGAGTCACCTAGTGCAG”, the binding signal is 5550 fluorescence intensity (a.u.). Under “AGATTAGCGAAACCCACGTACCCTCTATTTCAGTTTAACGCGGAGTCACCTAGTGCAG” stands 4120 fluorescence intensity (a.u.).

Take “TGAAGAAGATATAGGTAAATGGAAGCCTGATGATATCATGCGGAGTCACCTAGTGCAG”: the binding signal was 21100 fluorescence intensity (a.u.). The result for “TACACCTCATGAGTCATGATGATCCGTGGGTTCGTTAGGCCGGAGTCACCTAGTGCAG” reads 9840 fluorescence intensity (a.u.).

In the case of “AGATATCACAACCTGACCCACATTAGTCACACGCACTCACCGGAGTCACCTAGTGCAG”, the binding signal is 5510 fluorescence intensity (a.u.). Consider “CTAAACAAAACACATCACACGTCACGTTCAATCAAACTCACGGAGTCACCTAGTGCAG”, for which the binding signal is 4280 fluorescence intensity (a.u.).
